# From PubChem BioAssay (EPA / NIEHS)
# Sequences of proteins named here, by UniProt entry; tags and fusion partners are left off. A change or cut given only in a name is not applied to a line headed by its entry.
# UniProt Q92731, whole entry, looked up: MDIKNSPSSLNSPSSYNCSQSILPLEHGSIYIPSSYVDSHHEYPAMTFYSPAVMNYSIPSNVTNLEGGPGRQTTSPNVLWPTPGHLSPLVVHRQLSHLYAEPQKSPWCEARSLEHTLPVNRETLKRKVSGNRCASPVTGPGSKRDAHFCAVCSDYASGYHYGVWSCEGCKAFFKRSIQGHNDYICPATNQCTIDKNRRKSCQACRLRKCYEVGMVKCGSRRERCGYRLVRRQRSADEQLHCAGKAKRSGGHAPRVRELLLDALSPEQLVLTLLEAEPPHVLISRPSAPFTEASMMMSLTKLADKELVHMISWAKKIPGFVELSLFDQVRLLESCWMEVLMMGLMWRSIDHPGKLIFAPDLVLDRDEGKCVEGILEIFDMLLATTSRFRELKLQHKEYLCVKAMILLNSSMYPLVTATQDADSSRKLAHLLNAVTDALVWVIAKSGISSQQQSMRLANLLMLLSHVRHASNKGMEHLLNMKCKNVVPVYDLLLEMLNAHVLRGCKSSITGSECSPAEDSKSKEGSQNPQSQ
# UniProt P04386, whole entry, looked up: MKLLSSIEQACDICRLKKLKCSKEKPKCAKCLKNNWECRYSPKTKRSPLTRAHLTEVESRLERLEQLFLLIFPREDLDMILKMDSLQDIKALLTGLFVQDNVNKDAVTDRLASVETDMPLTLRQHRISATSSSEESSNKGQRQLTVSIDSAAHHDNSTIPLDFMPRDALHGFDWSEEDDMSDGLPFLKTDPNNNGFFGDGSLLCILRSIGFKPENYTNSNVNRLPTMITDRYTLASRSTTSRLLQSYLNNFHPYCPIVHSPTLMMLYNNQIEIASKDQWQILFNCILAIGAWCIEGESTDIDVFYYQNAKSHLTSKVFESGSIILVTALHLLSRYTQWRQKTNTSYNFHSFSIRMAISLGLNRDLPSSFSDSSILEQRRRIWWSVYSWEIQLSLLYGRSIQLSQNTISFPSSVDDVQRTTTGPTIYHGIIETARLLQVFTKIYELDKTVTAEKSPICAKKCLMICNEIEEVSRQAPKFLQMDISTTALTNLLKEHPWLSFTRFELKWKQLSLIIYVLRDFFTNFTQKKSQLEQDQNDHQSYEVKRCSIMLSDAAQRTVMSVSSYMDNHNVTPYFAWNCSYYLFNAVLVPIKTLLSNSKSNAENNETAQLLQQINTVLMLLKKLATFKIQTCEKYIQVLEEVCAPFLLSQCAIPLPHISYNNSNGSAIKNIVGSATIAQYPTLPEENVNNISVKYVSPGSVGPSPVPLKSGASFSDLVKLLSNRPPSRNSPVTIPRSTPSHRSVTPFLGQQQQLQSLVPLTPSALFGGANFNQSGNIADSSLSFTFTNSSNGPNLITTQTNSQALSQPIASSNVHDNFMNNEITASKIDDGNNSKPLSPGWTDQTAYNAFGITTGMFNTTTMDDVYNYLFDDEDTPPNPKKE
# UniProt P37231: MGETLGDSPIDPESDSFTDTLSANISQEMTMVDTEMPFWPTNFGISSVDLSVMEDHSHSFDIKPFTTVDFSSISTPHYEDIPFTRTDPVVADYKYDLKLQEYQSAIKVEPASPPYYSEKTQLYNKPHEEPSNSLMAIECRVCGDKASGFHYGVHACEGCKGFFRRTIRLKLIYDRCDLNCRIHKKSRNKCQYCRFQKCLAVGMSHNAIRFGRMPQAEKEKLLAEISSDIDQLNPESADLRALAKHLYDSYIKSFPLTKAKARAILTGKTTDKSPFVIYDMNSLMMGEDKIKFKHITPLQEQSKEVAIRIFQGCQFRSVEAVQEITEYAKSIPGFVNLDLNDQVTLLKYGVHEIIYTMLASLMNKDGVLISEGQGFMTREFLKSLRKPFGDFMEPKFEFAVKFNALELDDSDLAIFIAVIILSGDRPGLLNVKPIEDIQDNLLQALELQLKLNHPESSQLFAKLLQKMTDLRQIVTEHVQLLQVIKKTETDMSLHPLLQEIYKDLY
# UniProt P15204: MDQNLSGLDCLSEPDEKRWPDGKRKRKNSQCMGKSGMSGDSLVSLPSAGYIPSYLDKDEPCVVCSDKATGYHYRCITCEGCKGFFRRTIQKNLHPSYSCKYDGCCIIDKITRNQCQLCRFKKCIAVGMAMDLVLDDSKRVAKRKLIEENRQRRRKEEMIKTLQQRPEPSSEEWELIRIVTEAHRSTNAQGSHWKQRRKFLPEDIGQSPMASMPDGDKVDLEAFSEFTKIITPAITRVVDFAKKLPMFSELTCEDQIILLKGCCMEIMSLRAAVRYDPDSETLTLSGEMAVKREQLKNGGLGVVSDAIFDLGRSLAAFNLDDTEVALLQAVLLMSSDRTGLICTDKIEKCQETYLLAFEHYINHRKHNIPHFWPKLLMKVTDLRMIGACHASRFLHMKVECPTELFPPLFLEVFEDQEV
# UniProt Q98867: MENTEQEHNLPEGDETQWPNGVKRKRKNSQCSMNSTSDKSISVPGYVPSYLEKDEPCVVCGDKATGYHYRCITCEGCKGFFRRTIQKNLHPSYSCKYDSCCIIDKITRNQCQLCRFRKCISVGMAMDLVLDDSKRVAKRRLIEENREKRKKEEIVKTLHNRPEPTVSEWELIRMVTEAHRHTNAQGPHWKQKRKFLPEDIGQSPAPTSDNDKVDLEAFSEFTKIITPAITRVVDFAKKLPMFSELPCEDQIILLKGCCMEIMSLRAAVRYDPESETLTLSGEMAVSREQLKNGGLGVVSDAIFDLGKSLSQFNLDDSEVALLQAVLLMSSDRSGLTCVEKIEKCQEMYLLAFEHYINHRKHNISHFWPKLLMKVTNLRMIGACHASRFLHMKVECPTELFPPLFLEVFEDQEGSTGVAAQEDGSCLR
# UniProt Q9PVE4: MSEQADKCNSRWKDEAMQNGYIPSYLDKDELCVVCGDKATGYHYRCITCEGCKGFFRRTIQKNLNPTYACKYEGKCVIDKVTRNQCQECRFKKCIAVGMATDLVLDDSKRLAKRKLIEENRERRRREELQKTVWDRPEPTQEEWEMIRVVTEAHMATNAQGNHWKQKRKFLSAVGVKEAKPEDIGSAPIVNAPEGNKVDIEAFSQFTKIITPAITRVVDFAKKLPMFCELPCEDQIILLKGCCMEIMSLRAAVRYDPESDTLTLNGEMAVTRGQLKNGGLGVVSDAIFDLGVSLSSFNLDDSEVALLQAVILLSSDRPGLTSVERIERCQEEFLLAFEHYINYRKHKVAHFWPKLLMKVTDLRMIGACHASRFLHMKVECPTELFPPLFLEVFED
# UniProt P10827: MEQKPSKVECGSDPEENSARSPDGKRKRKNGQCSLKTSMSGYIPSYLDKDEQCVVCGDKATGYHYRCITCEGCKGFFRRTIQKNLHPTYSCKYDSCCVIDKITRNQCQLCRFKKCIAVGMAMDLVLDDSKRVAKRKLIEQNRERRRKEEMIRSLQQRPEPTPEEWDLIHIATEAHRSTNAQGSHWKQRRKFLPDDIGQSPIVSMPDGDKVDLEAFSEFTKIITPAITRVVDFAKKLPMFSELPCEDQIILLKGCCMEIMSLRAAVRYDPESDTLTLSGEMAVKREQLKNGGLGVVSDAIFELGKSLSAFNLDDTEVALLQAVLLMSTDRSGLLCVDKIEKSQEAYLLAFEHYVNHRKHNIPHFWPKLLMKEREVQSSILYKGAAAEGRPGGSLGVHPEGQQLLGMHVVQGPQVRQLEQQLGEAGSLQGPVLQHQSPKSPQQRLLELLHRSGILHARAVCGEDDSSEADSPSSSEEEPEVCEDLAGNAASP
# UniProt P10828: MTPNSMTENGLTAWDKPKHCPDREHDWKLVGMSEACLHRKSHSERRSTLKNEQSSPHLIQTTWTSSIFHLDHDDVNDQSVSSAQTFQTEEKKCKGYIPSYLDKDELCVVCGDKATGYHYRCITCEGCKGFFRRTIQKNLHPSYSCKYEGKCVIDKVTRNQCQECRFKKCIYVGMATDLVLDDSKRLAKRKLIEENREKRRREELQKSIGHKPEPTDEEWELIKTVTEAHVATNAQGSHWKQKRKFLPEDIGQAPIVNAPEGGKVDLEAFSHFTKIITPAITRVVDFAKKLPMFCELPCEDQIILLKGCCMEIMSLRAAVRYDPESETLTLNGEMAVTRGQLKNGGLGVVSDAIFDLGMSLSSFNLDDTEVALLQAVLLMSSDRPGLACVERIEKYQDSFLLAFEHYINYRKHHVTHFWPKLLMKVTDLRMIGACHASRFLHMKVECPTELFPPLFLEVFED
# UniProt P37238, whole entry, looked up: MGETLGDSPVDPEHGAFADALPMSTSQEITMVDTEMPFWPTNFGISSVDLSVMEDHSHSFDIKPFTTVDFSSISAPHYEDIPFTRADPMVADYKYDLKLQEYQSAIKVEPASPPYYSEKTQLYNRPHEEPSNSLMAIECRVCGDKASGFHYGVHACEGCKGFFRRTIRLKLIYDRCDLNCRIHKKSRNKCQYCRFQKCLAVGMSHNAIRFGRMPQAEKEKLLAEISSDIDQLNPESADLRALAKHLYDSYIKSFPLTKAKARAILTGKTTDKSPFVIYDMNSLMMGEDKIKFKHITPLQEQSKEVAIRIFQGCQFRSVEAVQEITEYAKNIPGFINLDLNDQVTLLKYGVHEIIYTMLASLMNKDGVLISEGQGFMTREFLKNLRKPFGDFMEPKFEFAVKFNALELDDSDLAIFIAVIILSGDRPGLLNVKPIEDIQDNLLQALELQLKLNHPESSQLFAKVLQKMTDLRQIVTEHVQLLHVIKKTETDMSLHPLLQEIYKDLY
# Where “and” joins values, the source holds several entries; their conditions need not be identical. Identical values can stand only once. The shares of active, inactive and inconclusive entries below differ from those in the screen. Potencies of inconclusive entries are doubtful fits and often do not repeat. The source holds several records for some structures; these can differ, active in one and inactive in another. Calls of active or inactive are those of the source. Rule for the calls: active = hit-call score of the fitted dose curve at least 0.9, where 1 is the maximum; inconclusive = response in the unintended direction; inactive = score below 0.9.
# Experiments:
# [1] = ATG_M_06_XSP2: Attagene TRANS-FACTORIAL Multi-Species (XSP2) HepG2 Assay for M06 Transcription Factor (Internal Marker) (AID 2283811);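 for outcome: hits are increases in signal above the DMSO baseline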
# Procedure, shortened: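 Cells of the human liver line HepG2 carried transfected reporter transcription units and were treated for 24 h. Induced reporter transcripts were detected by fluorescence after RT-PCR and capillary electrophoresis, with activity fitted in the gain direction against DMSO.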
# [2] = tested on: turtle Estrogen Receptor (ERa), gene 101933533; test: ATG_trERa_XSP2: Attagene TRANS-FACTORIAL Multi-Species (XSP2) HepG2 Assay for turtle Estrogen Receptor (ERa) (AID 2283812);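 note: actives raise reporter signal above DMSO so AC50 reflects agonist activity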
# Procedure, shortened: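 Readout is reporter mRNA quantified by RT-PCR with capillary electrophoresis after 24 h compound exposure, increase relative to DMSO. Uses transiently transfected human HepG2 liver cells carrying a chimeric turtle ERa-Gal4 receptor driving GAL4-UAS reporters.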
# [3] = target: Estrogen receptor beta (Homo sapiens) (UniProt Q92731); test: ATG_hERb_XSP1: Attagene TRANS-FACTORIAL Multi-Species (XSP1) HepG2 Assay for human Estrogen Receptor (ESR2) (AID 2283788)
# Procedure, shortened: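 Multiplexed trans-activation in transfected HepG2: ERβ-Gal4 reporter transcripts after 24 h treatment, detected by RT-PCR plus capillary electrophoresis.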
# [4] = target: GAL4 Transcription Factor (Internal Marker), GAL4 (gene 855828) (UniProt P04386); test: ATG_GAL4_XSP1: Attagene TRANS-FACTORIAL Multi-Species (XSP1) HepG2 Assay for GAL4 Transcription Factor (Internal Marker) (AID 2283789)
# Procedure, shortened: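 This background-control endpoint measures GAL4-driven reporter mRNA via RT-PCR and capillary electrophoresis of labelled fragments. Transiently transfected HepG2 cells were treated 24 h, with 3 nM 6-alpha-fluorotestosterone included, and gain-of-signal was fitted against DMSO.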
# [5] = ATG_M_06_XSP1: Attagene TRANS-FACTORIAL Multi-Species (XSP1) HepG2 Assay for M06 Transcription Factor (Internal Marker) (AID 2283790)
# Procedure, shortened: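 This background-control readout tracks M06 reporter mRNA, measured by RT-PCR and capillary electrophoresis. HepG2 cells transiently carrying the GAL4-UAS reporter panel were dosed for 24 h with 3 nM 6-alpha-fluorotestosterone added for partial AR stimulation; increases were scored relative to DMSO.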
# [6] = ATG_M_61_XSP1: Attagene TRANS-FACTORIAL Multi-Species (XSP1) HepG2 Assay for M61 Transcription Factor (Internal Marker) (AID 2283797)
# Procedure, shortened: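 Background-control readout: reporter transcripts measured by RT-PCR and capillary electrophoresis 24 h after dosing transiently transfected HepG2 multi-reporter cells, with 3 nM 6-alpha-fluorotestosterone present. Fitted in the positive direction relative to DMSO.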
# [7] = ATG_M_19_XSP1: Attagene TRANS-FACTORIAL Multi-Species (XSP1) HepG2 Assay for M19 Transcription Factor (Internal Marker) (AID 2283798)
# Procedure, shortened: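 Readout is reporter mRNA induction quantified via RT-PCR, 6-FAM labeling, HpaI digestion and capillary electrophoresis, fitted in the positive direction versus DMSO baseline. Transfected HepG2 cells exposed 24 h, medium including 3 nM 6-alpha-fluorotestosterone.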
# [8] = ATG_M_32_XSP1: Attagene TRANS-FACTORIAL Multi-Species (XSP1) HepG2 Assay for M32 Transcription Factor (Internal Marker) (AID 2283799)
# Procedure, shortened: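 Reporter transcripts from the M32 internal-control unit measured by RT-PCR, FAM labelling, HpaI digestion and capillary electrophoresis after 24 h compound exposure of transfected HepG2, 3 nM 6-alpha-fluorotestosterone included; DMSO baseline, positive-direction fit.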
# [9] = target: Peroxisome proliferator-activated receptor gamma (Homo sapiens) (UniProt P37231); test: ATG_hPPARg_XSP1: Attagene TRANS-FACTORIAL Multi-Species (XSP1) HepG2 Assay for human Peroxisome Proliferator-activated Receptor gamma (PPARg) (AID 2283800)
# Procedure, shortened: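 Reporter mRNA induction, measured by RT-PCR with capillary electrophoresis 24 h after dosing, scored as gain over DMSO. Transfected HepG2 cells express exogenous NR-Gal4 chimeras driving GAL4-UAS reporters; medium includes 3 nM 6-alpha-fluorotestosterone.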
# [10] = target: frog Thyroid hormone Receptor alpha (TRa), thra-a (gene 397942) (UniProt P15204); test: ATG_frTRa_XSP1: Attagene TRANS-FACTORIAL Multi-Species (XSP1) HepG2 Assay for frog Thyroid hormone Receptor alpha (TRa) (AID 2283804)
# Procedure, shortened: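 Reporter transcript induction, measured by RT-PCR with 6-FAM labelling and capillary electrophoresis, 24 hr after dosing transiently transfected HepG2 cells expressing a frog TRa-GAL4 fusion; medium contained 3 nM 6-alpha-fluorotestosterone; increase over DMSO scored.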
# [11] = target: zebrafish Thyroid Hormone Receptor alpha (TRa), thraa (gene 30670) (UniProt Q98867); test: ATG_zfTRa_XSP1: Attagene TRANS-FACTORIAL Multi-Species (XSP1) HepG2 Assay for zebrafish Thyroid Hormone Receptor alpha (TRa) (AID 2283807)
# Procedure, shortened: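 Reporter transcripts driven by a chimeric zebrafish TRa–Gal4 protein were measured by RT-PCR with fluorescent labelling and capillary electrophoresis. These came from transiently transfected HepG2 cells after 24 h chemical exposure, with 3 nM 6-alpha-fluorotestosterone added; baseline was DMSO.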
# [12] = target: zebrafish Thyroid Hormone Receptor beta (TRb), thrb (gene 30607) (UniProt Q9PVE4); test: ATG_zfTRb_XSP1: Attagene TRANS-FACTORIAL Multi-Species (XSP1) HepG2 Assay for zebrafish Thyroid Hormone Receptor beta (TRb) (AID 2283809)
# Procedure, shortened: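 HepG2 cells transiently transfected with multiplexed GAL4-UAS reporter units expressing chimeric zebrafish TRb–Gal4. Dosed 24 h with 3 nM 6-alpha-fluorotestosterone present; reporter mRNA measured by RT-PCR, HpaI digestion and capillary electrophoresis; gain of signal versus DMSO.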
# [13] = target: human Thyroid hormone Receptor alpha (TRa), THRA (gene 7067) (UniProt P10827); test: ATG_hTRa_XSP1: Attagene TRANS-FACTORIAL Multi-Species (XSP1) HepG2 Assay for human Thyroid hormone Receptor alpha (TRa) (AID 2283805)
# Procedure, shortened: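 Reporter transcripts from the human TRa-Gal4 TRANS unit quantified by RT-PCR, fluorescent labeling and capillary electrophoresis after 24 hours of chemical exposure in transfected HepG2 cells; medium contains 3 nM 6-alpha-fluorotestosterone. Positive direction fit against DMSO.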
# [14] = tested on: turtle Thyroid Hormone Receptor, alpha (TRa), gene 101949057; test: ATG_trTRa_XSP1: Attagene TRANS-FACTORIAL Multi-Species (XSP1) HepG2 Assay for turtle Thyroid Hormone Receptor, alpha (TRa) (AID 2283806)
# Procedure, shortened: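 After 24 h chemical exposure, reporter transcripts were measured by RT-PCR with fluorescent primer extension, HpaI digestion and capillary electrophoresis. Cells were transiently transfected HepG2 expressing exogenous NR-Gal4 chimeras; medium contained 3 nM 6-alpha-fluorotestosterone; fitted upward relative to DMSO.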
# [15] = target: human Thyroid hormone Receptor beta (TRb), THRB (gene 7068) (UniProt P10828); test: ATG_hTRb_XSP1: Attagene TRANS-FACTORIAL Multi-Species (XSP1) HepG2 Assay for human Thyroid hormone Receptor beta (TRb) (AID 2283808)
# Procedure, shortened: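 Readout is reporter mRNA induction measured by RT-PCR, fluorescent labelling and capillary electrophoresis, fitted upward relative to DMSO. Transiently transfected human HepG2 cells expressing NR-Gal4 chimeras were dosed for 24 h, medium containing 3 nM 6-alpha-fluorotestosterone.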
# [16] = target: Estrogen receptor beta (Homo sapiens) (UniProt Q92731); test: ATG_hERb_XSP2: Attagene TRANS-FACTORIAL Multi-Species (XSP2) HepG2 Assay for human Estrogen Receptor (ERb) (AID 2283813);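 note: actives raise reporter mRNA above DMSO so AC50 reflects agonist induction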
# Procedure, shortened: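 Transient TRANS reporter system in HepG2: after 24 h of chemical, RNA is reverse-transcribed, reporter cDNA amplified, FAM-labelled and sized by capillary electrophoresis. Induction of the human ERb-Gal4 reporter is measured relative to DMSO.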
# [17] = tested on: zebrafish Peroxisome Proliferator-activated Receptor gamma (PPARg), gene 557037; test: ATG_zfPPARg_XSP1: Attagene TRANS-FACTORIAL Multi-Species (XSP1) HepG2 Assay for zebrafish Peroxisome Proliferator-activated Receptor gamma (PPARg) (AID 2283801)
# Procedure, shortened: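 Trans-activation readout of chimeric zebrafish PPARg–GAL4 in transiently transfected human HepG2 cells, 24 h chemical exposure (medium includes 3 nM 6-alpha-fluorotestosterone). Reporter transcripts measured by RT-PCR and capillary electrophoresis, fitted as gain over DMSO.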
# [18] = target: Nuclear receptor subfamily 1 group I member 2 (Mus musculus) (UniProt O54915); test: ATG_mPXR_XSP1: Attagene TRANS-FACTORIAL Multi-Species (XSP1) HepG2 Assay for mouse Pregnane X Receptor (PXR) (AID 2283803)
# Procedure, shortened: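 Transiently transfected HepG2 cells expressing a receptor-Gal4 chimera drive a GAL4-UAS reporter; 3 nM 6-alpha-fluorotestosterone included. Reporter mRNA read 24 h post-dose by RT-PCR and capillary electrophoresis; gain of signal relative to DMSO.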
# [19] = target: mouse Peroxisome Proliferator-activated Receptor gamma (PPARg), Pparg (gene 19016) (UniProt P37238); test: ATG_mPPARg_XSP1: Attagene TRANS-FACTORIAL Multi-Species (XSP1) HepG2 Assay for mouse Peroxisome Proliferator-activated Receptor gamma (PPARg) (AID 2283802)
# Procedure, shortened: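 Readout is reporter mRNA induction, measured by RT-PCR with 6-FAM labelling, HpaI digestion and capillary electrophoresis, 24 h post-dose relative to DMSO. Transient multi-reporter transfection of human HepG2 with mouse PPARg–GAL4 fusion; 3 nM 6-alpha-fluorotestosterone included.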
# [20] = ATG_XTT_Cytotoxicity_XSP1: Cytotoxicity Assessment in the Attagene TRANS-FACTORIAL Multi-Species (XSP1) HepG2 Assay (AID 2283810)
# Procedure, shortened: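 XTT viability readout taken at 24 hours post-dosing in HepG2 liver cells co-treated with 3 nM 6-alpha-fluorotestosterone. Signal loss relative to DMSO controls reflects cytotoxicity.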
structure (smiles),measurement,setting,value
CCCCCCCCCCCCN,AC50,[1],inconclusive: 30 µM
same,AC50,[2],inconclusive: 15.1 µM
CC(C)(C)c1cc(O)c(C(C)(C)C)cc1O,AC50,[3],inconclusive: 0.00914 µM
same,outcome,[4],inactive
same,AC50,[5],inconclusive: 100 µM
same,AC50,[6],inconclusive: 100 µM
same,outcome,[7],inactive
same,outcome,[8],inactive
same,AC50,[9],active: 160 µM
same,outcome,[10],inactive
same,AC50,[11],inconclusive: 100 µM
same,outcome,[12],inactive
CCCCC(CC)CN1C(=O)C2C3C=CC(C3)C2C1=O (configuration not stated),AC50,[3],inconclusive: 184 µM
same,outcome,[4],inactive
same,AC50,[5],inconclusive: 25.9 µM
same,AC50,[6],inconclusive: 25.9 µM
same,outcome,[7],inactive
same,outcome,[8],inactive
same,AC50,[10],inconclusive: 100 µM
same,AC50,[13],inconclusive: 181 µM
same,AC50,[14],inconclusive: 100 µM
same,AC50,[11],inconclusive: 100 µM
same,AC50,[15],inconclusive: 100 µM
same,AC50,[1],inconclusive: 0.734 µM
same,outcome,[2],inactive
same,outcome,[16],inactive
Oc1ccc2c(c1)-c1ccccc1C2,outcome,[1],inactive
C=CCc1cc(S(=O)(=O)c2ccc(O)c(CC=C)c2)ccc1O,outcome,[4],inactive
same,outcome,[6],inactive
same,AC50,[7],inconclusive: 0.00914 µM
same,outcome,[8],inactive
same,outcome,[17],inactive
same,AC50,[18],inconclusive: 141 µM
same,outcome,[13],inactive
same,AC50,[14],active: 100 µM
same,AC50,[11],inconclusive: 100 µM
O=C(O)Cc1cc(I)c(Oc2ccc(O)c(I)c2)c(I)c1,AC50,[16],inconclusive: 1 µM
same,outcome,[16],inactive
OCc1cccc(Oc2ccccc2)c1,AC50,[2],active: 17.1 µM and active: 11.5 µM
same,AC50,[16],active: 26.9 µM and active: 8.78 µM
CCN(Cc1c(F)cccc1Cl)c1c([N+](=O)[O-])cc(C(F)(F)F)cc1[N+](=O)[O-],AC50,[1],inconclusive: 100 µM
same,AC50,[2],active: 2.15 µM
same,outcome,[2],inactive
same,AC50,[16],inconclusive: 100 µM
Cc1cc(=O)oc2cc(N(C)C)ccc12,AC50,[2],active: 49.9 µM
same,outcome,[2],inactive
same,outcome,[16],inactive
C=CCOC(Cn1ccnc1)c1ccc(Cl)cc1Cl (configuration not stated),AC50,[4],inconclusive: 100 µM
same,AC50,[7],inconclusive: 100 µM
same,outcome,[8],inactive
same,AC50,[9],active: 100 µM
same,outcome,[17],inactive
same,AC50,[19],active: 9.81 µM
same,outcome,[10],inactive
same,AC50,[13],inconclusive: 142 µM
same,AC50,[14],inconclusive: 100 µM
same,outcome,[15],inactive
same,AC50,[12],inconclusive: 100 µM
same,outcome,[20],inactive
O=C(c1ccc(O)cc1)c1ccc(O)cc1O,outcome,[4],inactive
same,outcome,[6],inactive
same,AC50,[7],inconclusive: 0.147 µM
same,AC50,[8],inconclusive: 0.0967 µM
same,AC50,[9],inconclusive: 2.38 µM
same,AC50,[17],inconclusive: 10 µM
same,outcome,[19],inactive
same,outcome,[20],inactive
CCN(CC)C(=S)SSC(=S)N(CC)CC,AC50,[3],inconclusive: 0.00914 µM
same,outcome,[6],inactive
same,AC50,[7],inconclusive: 11.1 µM
same,outcome,[8],inactive
same,AC50,[17],inconclusive: 0.00914 µM
same,outcome,[19],inactive
same,AC50,[18],inconclusive: 19.8 µM
same,outcome,[15],inactive
same,AC50,[2],inconclusive: 32.7 µM
same,AC50,[16],inconclusive: 100 µM
